In PubChem BioAssay AID206 (DTP/NCI, 2004):
Results filed as inconclusive are left out.

System: nude mice, HT29 intrarenal xenograft, tumor weight T/C
Assay: NCI In Vivo Anticancer Drug Screen. Data for tumor model HT29;CX-1 Human Adenocarcinoma (MER+) (intrarenal inoculation) in NU/NU Swiss (nude) mice
Conditions: endpoint: mean tumor weight change, schedule: Q01DX010 (sc), vehicle: Klucel (hydroxypropylcellulose) (HPC), higher = larger tumour
Protocol: The antitumor activity of compounds was measured in mice bearing transplantable tumors. Survival or tumor size were measured and the results are expressed as the measurement made in the treated group (T) divided by the measurement made in the vehicle treated control group (C). The tumor model used in this assay is HT29;CX-1 Human Adenocarcinoma (MER+) (intrarenal inoculation) in NU/NU Swiss (nude) mice

With `COc1cc2c(c(OC)c1OC)-c1ccc(OC)c(=O)cc1[C@@H](N)CC2` the T/C (dose: 0.31 mg/kg/injection) was 91 % of control, the T/C (dose: 0.63 mg/kg/injection) was 96 % of control and the T/C (dose: 1.25 mg/kg/injection) was 94 % of control. For the same molecule, the T/C (dose: 2.5 mg/kg/injection) was 50 % of control.
